Experimental data as given in the supplement of paper PMC6411743.
± gives the standard deviation of the averaged measurements. The list shows a part of the results.

Sequences of proteins named here, by UniProt entry; tags and fusion partners are left off. A change or cut given only in a name is not applied to a line headed by its entry.
UniProt Q49A26: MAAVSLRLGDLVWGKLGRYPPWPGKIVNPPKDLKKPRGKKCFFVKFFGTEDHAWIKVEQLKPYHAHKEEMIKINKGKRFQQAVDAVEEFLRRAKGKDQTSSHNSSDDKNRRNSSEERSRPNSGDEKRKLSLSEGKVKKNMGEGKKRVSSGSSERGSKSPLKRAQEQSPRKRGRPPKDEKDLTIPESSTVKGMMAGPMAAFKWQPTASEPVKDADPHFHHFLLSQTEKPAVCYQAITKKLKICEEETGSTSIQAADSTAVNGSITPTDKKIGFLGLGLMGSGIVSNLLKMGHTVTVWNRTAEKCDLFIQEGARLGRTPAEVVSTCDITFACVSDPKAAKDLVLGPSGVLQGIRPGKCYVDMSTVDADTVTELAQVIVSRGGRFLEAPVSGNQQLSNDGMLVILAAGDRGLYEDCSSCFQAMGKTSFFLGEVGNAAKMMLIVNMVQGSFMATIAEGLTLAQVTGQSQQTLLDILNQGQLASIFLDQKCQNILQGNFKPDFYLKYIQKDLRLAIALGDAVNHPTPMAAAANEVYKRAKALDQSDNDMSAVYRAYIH
UniProt Q3MHD2: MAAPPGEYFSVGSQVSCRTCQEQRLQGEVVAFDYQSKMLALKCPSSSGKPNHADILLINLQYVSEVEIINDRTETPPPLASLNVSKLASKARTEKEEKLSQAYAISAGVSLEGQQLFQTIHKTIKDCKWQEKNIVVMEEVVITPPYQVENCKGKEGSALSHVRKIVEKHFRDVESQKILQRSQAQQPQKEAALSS
UniProt Q15363: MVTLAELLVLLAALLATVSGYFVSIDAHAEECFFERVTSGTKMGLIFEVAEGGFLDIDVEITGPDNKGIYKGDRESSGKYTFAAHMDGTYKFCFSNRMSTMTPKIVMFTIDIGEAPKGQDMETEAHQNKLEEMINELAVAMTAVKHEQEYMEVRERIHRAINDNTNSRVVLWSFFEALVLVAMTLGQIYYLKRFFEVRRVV
UniProt Q14980: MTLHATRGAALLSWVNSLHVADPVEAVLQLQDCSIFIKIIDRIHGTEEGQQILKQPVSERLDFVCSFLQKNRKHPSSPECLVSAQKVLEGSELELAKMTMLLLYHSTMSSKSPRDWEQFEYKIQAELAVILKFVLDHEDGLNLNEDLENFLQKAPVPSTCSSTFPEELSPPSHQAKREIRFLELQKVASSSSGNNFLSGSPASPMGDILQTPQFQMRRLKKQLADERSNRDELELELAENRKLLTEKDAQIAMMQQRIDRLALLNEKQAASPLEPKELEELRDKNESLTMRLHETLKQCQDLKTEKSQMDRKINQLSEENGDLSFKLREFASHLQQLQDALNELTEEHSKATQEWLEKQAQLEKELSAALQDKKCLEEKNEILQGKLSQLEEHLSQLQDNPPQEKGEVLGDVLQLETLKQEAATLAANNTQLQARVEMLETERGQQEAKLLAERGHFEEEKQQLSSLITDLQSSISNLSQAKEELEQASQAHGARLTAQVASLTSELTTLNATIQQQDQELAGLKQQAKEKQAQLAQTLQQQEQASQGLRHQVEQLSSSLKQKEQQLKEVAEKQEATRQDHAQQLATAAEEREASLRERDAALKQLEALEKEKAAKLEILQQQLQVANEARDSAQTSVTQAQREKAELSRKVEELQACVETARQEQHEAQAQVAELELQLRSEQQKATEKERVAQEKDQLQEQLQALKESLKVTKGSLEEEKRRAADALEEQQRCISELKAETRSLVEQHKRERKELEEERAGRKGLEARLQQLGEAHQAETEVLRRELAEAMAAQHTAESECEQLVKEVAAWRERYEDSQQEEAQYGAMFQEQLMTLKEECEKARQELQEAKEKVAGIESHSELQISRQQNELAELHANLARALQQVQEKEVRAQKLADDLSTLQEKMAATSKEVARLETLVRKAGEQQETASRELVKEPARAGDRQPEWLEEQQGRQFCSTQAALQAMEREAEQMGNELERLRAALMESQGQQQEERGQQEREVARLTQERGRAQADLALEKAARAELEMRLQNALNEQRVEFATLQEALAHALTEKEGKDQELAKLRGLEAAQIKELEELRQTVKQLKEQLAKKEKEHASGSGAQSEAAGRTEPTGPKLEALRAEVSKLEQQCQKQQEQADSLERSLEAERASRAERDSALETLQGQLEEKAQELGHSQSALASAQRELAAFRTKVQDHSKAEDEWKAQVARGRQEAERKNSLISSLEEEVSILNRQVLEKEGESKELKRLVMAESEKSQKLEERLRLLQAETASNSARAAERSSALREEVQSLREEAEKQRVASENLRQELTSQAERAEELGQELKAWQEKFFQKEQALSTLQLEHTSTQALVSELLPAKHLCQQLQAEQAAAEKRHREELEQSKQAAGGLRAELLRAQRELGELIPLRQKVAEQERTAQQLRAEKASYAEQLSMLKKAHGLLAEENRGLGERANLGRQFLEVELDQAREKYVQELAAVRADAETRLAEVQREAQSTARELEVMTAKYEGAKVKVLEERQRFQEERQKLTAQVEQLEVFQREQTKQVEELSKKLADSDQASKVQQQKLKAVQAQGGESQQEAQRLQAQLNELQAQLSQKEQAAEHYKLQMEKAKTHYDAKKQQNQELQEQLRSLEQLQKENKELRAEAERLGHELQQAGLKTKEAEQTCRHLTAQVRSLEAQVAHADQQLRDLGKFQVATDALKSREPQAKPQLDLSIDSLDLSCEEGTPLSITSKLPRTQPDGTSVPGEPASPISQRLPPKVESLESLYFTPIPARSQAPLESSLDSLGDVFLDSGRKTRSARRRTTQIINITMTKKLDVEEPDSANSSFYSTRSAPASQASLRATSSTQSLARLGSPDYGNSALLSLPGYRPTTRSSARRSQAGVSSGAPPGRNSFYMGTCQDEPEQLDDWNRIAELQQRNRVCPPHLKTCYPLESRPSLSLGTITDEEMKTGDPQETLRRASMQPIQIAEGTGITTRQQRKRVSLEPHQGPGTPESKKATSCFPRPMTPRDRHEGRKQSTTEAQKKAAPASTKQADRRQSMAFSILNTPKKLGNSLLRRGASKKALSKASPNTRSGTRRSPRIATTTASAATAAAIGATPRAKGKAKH
UniProt Q3T906: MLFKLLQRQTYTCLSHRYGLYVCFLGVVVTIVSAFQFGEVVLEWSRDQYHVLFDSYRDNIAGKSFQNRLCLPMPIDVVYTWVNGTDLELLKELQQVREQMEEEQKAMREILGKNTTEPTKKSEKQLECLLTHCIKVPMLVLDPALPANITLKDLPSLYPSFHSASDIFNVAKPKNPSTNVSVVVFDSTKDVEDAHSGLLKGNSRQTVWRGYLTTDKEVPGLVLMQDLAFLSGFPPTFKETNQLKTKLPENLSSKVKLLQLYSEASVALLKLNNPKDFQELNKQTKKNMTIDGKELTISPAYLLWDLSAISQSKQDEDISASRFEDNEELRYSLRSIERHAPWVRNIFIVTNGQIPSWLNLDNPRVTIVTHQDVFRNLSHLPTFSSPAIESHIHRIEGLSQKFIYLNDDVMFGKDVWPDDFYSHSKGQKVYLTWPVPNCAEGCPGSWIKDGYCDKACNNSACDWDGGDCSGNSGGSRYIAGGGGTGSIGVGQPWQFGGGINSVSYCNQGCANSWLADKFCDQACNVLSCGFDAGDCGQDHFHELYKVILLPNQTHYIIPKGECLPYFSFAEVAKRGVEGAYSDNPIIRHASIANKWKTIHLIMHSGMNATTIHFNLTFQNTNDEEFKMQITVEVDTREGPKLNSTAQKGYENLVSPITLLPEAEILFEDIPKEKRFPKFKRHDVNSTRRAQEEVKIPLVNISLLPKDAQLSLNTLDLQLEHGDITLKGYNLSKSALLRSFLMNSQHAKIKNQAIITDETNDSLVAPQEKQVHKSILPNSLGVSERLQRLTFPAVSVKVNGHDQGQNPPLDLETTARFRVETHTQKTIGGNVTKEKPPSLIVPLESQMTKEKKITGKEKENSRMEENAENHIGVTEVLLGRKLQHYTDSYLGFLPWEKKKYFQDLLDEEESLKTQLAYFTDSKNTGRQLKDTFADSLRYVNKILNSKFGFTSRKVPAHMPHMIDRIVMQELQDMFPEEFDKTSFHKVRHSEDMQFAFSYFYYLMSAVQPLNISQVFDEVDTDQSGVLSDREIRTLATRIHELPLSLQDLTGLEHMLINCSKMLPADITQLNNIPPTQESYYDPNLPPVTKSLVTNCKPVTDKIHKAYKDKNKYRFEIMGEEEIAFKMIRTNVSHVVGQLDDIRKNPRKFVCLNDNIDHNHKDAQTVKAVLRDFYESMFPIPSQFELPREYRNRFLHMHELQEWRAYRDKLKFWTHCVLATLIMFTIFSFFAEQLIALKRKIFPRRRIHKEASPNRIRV
UniProt Q15599: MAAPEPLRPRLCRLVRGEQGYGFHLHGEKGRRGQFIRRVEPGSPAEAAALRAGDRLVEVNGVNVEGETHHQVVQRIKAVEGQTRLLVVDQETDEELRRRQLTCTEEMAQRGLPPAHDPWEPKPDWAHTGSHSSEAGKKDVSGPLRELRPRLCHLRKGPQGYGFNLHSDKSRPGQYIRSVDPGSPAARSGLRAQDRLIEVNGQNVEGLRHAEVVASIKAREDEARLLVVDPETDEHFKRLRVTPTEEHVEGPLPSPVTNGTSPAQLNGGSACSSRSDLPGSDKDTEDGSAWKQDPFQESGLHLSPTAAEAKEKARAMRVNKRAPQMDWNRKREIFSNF
UniProt Q15029: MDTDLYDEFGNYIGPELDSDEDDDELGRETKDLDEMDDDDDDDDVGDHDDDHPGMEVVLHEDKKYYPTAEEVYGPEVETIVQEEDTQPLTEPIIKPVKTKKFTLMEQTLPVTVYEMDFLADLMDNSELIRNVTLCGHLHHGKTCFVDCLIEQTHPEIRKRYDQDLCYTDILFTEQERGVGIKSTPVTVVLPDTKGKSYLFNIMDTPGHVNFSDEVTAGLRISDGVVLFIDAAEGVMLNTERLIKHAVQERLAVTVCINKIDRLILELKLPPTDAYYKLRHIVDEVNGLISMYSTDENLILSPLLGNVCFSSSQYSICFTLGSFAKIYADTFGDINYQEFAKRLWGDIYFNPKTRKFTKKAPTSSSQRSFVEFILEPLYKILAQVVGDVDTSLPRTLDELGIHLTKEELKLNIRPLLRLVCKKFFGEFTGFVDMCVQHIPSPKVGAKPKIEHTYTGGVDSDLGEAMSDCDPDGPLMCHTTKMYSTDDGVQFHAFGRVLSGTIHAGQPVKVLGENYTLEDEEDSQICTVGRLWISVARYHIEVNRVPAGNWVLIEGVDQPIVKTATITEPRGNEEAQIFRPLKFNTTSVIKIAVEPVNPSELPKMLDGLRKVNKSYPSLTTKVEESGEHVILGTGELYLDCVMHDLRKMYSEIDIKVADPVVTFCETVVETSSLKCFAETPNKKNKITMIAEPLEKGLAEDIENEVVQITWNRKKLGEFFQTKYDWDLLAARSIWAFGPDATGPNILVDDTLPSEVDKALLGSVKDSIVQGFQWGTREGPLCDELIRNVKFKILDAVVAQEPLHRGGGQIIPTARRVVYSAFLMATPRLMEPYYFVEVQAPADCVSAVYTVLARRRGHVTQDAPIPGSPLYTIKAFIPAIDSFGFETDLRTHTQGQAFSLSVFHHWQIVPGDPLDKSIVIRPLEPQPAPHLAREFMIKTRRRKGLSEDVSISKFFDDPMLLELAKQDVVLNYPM
UniProt Q5BKX5: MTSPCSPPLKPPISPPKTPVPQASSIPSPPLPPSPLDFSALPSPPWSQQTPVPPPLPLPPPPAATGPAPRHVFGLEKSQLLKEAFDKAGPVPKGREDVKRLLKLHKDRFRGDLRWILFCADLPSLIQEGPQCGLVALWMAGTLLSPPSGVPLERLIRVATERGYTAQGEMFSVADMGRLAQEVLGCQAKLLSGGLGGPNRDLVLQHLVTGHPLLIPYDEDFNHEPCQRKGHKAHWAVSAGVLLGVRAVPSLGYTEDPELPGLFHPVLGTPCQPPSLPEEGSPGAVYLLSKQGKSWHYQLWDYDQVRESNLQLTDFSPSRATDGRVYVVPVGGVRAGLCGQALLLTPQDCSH
UniProt Q53F19: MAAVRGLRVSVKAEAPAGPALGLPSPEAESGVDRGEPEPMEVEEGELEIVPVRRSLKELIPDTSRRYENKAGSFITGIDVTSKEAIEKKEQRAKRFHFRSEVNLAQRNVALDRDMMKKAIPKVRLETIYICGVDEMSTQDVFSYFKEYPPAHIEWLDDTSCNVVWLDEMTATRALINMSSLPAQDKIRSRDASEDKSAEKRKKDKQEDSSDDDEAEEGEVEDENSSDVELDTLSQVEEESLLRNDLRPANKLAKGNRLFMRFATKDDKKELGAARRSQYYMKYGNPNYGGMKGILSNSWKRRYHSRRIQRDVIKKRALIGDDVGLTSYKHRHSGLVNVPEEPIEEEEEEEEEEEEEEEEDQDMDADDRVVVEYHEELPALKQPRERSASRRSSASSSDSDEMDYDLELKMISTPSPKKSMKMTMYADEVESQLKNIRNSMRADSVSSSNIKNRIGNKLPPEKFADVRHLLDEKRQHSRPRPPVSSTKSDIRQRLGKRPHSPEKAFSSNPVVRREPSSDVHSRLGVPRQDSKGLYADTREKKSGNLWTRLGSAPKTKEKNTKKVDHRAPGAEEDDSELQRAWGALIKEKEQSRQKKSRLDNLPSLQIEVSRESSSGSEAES

Compound: Nc1nc2c(ncn2[C@@H]2O[C@H](COP(=O)(O)OP(=O)(O)OP(=O)(O)O)[C@@H](O)[C@H]2O)c(=O)[nH]1 [guanosine triphosphate]
Assay: NP40-soluble protein abundance relative to vehicle (solubility fold change) (ratio); higher = more soluble protein in presence of GTP
Method in brief: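 Jurkat crude lysate (Dounce-homogenised) was treated with eight concentrations from 0.1 to 10 mM for 10 min at room temperature, then 3 min at 37 °C. It was solubilised with 0.8% NP40 and benzonase (60 min, 4 °C) and ultracentrifuged, and the supernatant was TMT-labelled for LC-MS/MS. Intensities were vsn-normalised, and the value is the fold change against the NP40-processed vehicle per replicate, from three independent experiments.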

Target | NP40-soluble protein abundance (concentration: 0.1mM) | NP40-soluble protein abundance (concentration: 0.5mM) | NP40-soluble protein abundance (concentration: 1mM) | NP40-soluble protein abundance (concentration: 2mM) | NP40-soluble protein abundance (concentration: 4mM) | NP40-soluble protein abundance (concentration: 6mM) | NP40-soluble protein abundance (concentration: 8mM) | NP40-soluble protein abundance (concentration: 10mM)
UniProt Q5K651 and related entries | 1.04 ± 0.017 | 1.07 ± 0.021 | 0.998 ± 0.025 | 1.01 ± 0.062 | 0.968 ± 0.083 | 0.959 ± 0.047 | 0.985 ± 0.045 | 0.949 ± 0.088
UniProt Q49A26 and related entries | 1.044 ± 0.0023 | 1.06 ± 0.036 | 1.15 ± 0.03 | 1.27 ± 0.028 | 1.52 ± 0.16 | 1.72 ± 0.026 | 1.97 ± 0.078 | 2.27 ± 0.094
UniProt Q147X3 and related entries | 0.987 ± 0.19 | 0.98 ± 0.13 | 0.963 ± 0.12 | 0.929 ± 0.12 | 0.957 ± 0.094 | 0.934 ± 0.12 | 0.855 ± 0.044 | 0.925 ± 0.19
CEP55 (UniProt Q53EZ4) | 0.909 ± 0.045 | 0.952 ± 0.078 | 1.01 ± 0.097 | 1.01 ± 0.12 | 1.02 ± 0.07 | 1.01 ± 0.077 | 1.04 ± 0.044 | 1.13 ± 0.044
LACTB2 (UniProt Q53H82) | 1.05 ± 0.02 | 1.02 ± 0.042 | 0.978 ± 0.075 | 0.955 ± 0.069 | 0.948 ± 0.052 | 0.933 ± 0.095 | 0.978 ± 0.052 | 0.91 ± 0.095
UniProt Q4KMQ2 and related entries | 1.07 ± 0.03 | 1.04 ± 0.022 | 0.976 ± 0.056 | 0.989 ± 0.017 | 0.978 ± 0.044 | 0.967 ± 0.039 | 0.951 ± 0.077 | 0.918 ± 0.025
UniProt Q15185 and related entries | 0.882 ± 0.12 | 0.895 ± 0.13 | 0.852 ± 0.13 | 0.813 ± 0.12 | 0.818 ± 0.12 | 0.81 ± 0.1 | 0.819 ± 0.12 | 0.819 ± 0.11
HSDL1 (UniProt Q3SXM5) | 1.13 ± 0.21 | 1.17 ± 0.16 | 0.98 ± 0.065 | 1.01 ± 0.27 | 0.98 ± 0.16 | 0.958 ± 0.097 | 0.896 ± 0.045 | 0.897 ± 0.089
EXOSC7 (UniProt Q15024) | 1.09 ± 0.084 | 1.01 ± 0.071 | 1.06 ± 0.086 | 1.11 ± 0.12 | 1.26 ± 0.13 | 1.17 ± 0.12 | 1.22 ± 0.077 | 1.18 ± 0.061
ARHGEF6 (UniProt Q15052) | 1.03 ± 0.014 | 1.03 ± 0.018 | 1.03 ± 0.041 | 1.03 ± 0.014 | 1.03 ± 0.034 | 1.01 ± 0.038 | 1.03 ± 0.054 | 0.985 ± 0.023
UniProt Q3MHD2 and related entries | 0.9 ± 0.11 | 0.925 ± 0.09 | 0.924 ± 0.097 | 0.926 ± 0.1 | 0.93 ± 0.086 | 0.952 ± 0.075 | 0.977 ± 0.1 | 1.01 ± 0.1
TMED2 (UniProt Q15363) | 1.04 ± 0.061 | 1.03 ± 0.032 | 0.894 ± 0.056 | 0.894 ± 0.095 | 0.89 ± 0.055 | 0.862 ± 0.057 | 0.841 ± 0.12 | 0.812 ± 0.14
UniProt Q14980 and related entries | 0.943 ± 0.07 | 1.01 ± 0.07 | 1.08 ± 0.079 | 1.02 ± 0.12 | 0.999 ± 0.13 | 0.999 ± 0.11 | 1.04 ± 0.11 | 1.02 ± 0.12
TRMT5 (UniProt Q32P41) | 1.03 ± 0.043 | 1.06 ± 0.074 | 0.949 ± 0.059 | 0.965 ± 0.091 | 0.958 ± 0.058 | 0.957 ± 0.1 | 0.921 ± 0.038 | 0.883 ± 0.058
GNPTAB (UniProt Q3T906) | 0.997 ± 0.085 | 1.03 ± 0.068 | 1.08 ± 0.043 | 1.1 ± 0.035 | 1.08 ± 0.055 | 1.12 ± 0.02 | 1.14 ± 0.11 | 1.17 ± 0.079
UniProt Q3SXY8 and related entries | 1.11 ± 0.063 | 1.07 ± 0.1 | 1.16 ± 0.11 | 1.11 ± 0.16 | 1.09 ± 0.19 | 1.1 ± 0.16 | 1.19 ± 0.094 | 1.19 ± 0.13
UniProt Q5T0F9-2 | 0.938 ± 0.078 | 0.975 ± 0.12 | 0.933 ± 0.098 | 0.928 ± 0.12 | 0.893 ± 0.092 | 0.911 ± 0.13 | 0.952 ± 0.12 | 0.946 ± 0.12
NCOA2 (UniProt Q15596) | 1.07 ± 0.094 | 1.02 ± 0.03 | 1.08 ± 0.16 | 1.03 ± 0.11 | 0.967 ± 0.11 | 0.984 ± 0.033 | 1.01 ± 0.095 | 1.04 ± 0.086
EEA1 (UniProt Q15075) | 0.937 ± 0.075 | 0.913 ± 0.09 | 0.954 ± 0.099 | 0.897 ± 0.12 | 0.907 ± 0.12 | 0.895 ± 0.11 | 0.921 ± 0.07 | 0.932 ± 0.098
Q5JWT2 and related entries (UniProt Q9ULK4) | 1.1 ± 0.068 | 1.18 ± 0.073 | 1.08 ± 0.061 | 1.17 ± 0.13 | 1.13 ± 0.12 | 1.11 ± 0.073 | 1.11 ± 0.039 | 1.07 ± 0.092
UniProt Q14693 and related entries | 1.07 ± 0.04 | 1.01 ± 0.062 | 1.05 ± 0.068 | 1.05 ± 0.02 | 1.02 ± 0.074 | 1.03 ± 0.043 | 0.99 ± 0.032 | 0.994 ± 0.051
NDUFA9 (UniProt Q16795) | 1.09 ± 0.09 | 1.11 ± 0.15 | 1.06 ± 0.14 | 1.14 ± 0.25 | 1.17 ± 0.21 | 1.11 ± 0.22 | 1.07 ± 0.16 | 1.06 ± 0.15
UniProt Q15599 and related entries | 0.981 ± 0.14 | 0.912 ± 0.049 | 0.953 ± 0.035 | 1.02 ± 0.075 | 0.988 ± 0.05 | 1.02 ± 0.15 | 1.01 ± 0.057 | 0.982 ± 0.092
UniProt Q15029 and related entries | 1.04 ± 0.06 | 1.11 ± 0.092 | 1.11 ± 0.11 | 1.19 ± 0.16 | 1.28 ± 0.18 | 1.32 ± 0.21 | 1.35 ± 0.19 | 1.39 ± 0.2
C19orf54 (UniProt Q5BKX5) | 0.97 ± 0.06 | 0.927 ± 0.088 | 0.918 ± 0.067 | 0.908 ± 0.08 | 0.906 ± 0.06 | 0.8831 ± 0.0086 | 0.861 ± 0.053 | 0.851 ± 0.07
NCAPD2 (UniProt Q15021) | 1.03 ± 0.027 | 1.05 ± 0.057 | 0.995 ± 0.037 | 1.01 ± 0.074 | 1.01 ± 0.061 | 1.01 ± 0.074 | 0.99 ± 0.049 | 0.976 ± 0.044
UniProt Q53F19 | 0.981 ± 0.061 | 0.94 ± 0.12 | 1.03 ± 0.13 | 1.04 ± 0.094 | 1.06 ± 0.06 | 1.11 ± 0.082 | 1.15 ± 0.071 | 1.19 ± 0.054
TST (UniProt Q16762) | 1.02 ± 0.079 | 1.06 ± 0.042 | 0.967 ± 0.033 | 0.932 ± 0.057 | 0.878 ± 0.042 | 0.915 ± 0.049 | 0.927 ± 0.069 | 0.867 ± 0.046
UniProt Q15545 and related entries | 1.02 ± 0.11 | 0.969 ± 0.065 | 1.12 ± 0.087 | 1.12 ± 0.078 | 1.16 ± 0.041 | 1.17 ± 0.07 | 1.11 ± 0.11 | 1.21 ± 0.086
CCDC6 (UniProt Q16204) | 0.881 ± 0.034 | 0.87 ± 0.021 | 0.971 ± 0.026 | 0.961 ± 0.025 | 0.911 ± 0.019 | 0.911 ± 0.043 | 0.913 ± 0.019 | 0.99 ± 0.07

Random excerpt: 2 records from the list.
Target | NP40-soluble protein abundance (concentration: 0.1mM) | NP40-soluble protein abundance (concentration: 0.5mM) | NP40-soluble protein abundance (concentration: 1mM) | NP40-soluble protein abundance (concentration: 2mM) | NP40-soluble protein abundance (concentration: 4mM) | NP40-soluble protein abundance (concentration: 6mM) | NP40-soluble protein abundance (concentration: 8mM) | NP40-soluble protein abundance (concentration: 10mM)
UniProt Q147X3 and related entries | 0.987 ± 0.19 | 0.98 ± 0.13 | 0.963 ± 0.12 | 0.929 ± 0.12 | 0.957 ± 0.094 | 0.934 ± 0.12 | 0.855 ± 0.044 | 0.925 ± 0.19
NCOA2 (UniProt Q15596) | 1.07 ± 0.094 | 1.02 ± 0.03 | 1.08 ± 0.16 | 1.03 ± 0.11 | 0.967 ± 0.11 | 0.984 ± 0.033 | 1.01 ± 0.095 | 1.04 ± 0.086
